In PMC7108934 (ChemPlusChem, 2019):

Tested on: MCF-7 cells (human breast carcinoma)
Test: MTT cytotoxicity assay, MCF-7
Format: cell-based
Conditions: read-out: (IC50 ± SD) MCF-7, at least 72 h incubation, mean ± SD

N.N.[Cl][Pt][Cl] [Cisplatin]
IC50: 11.6 ± 1.66 µM
